Experimental data: publication PMC11020649
These are yes or no findings as the source states them, for the method shown. Some entries that bind do so weakly or less than the wild type.

How the values were obtained:
Test in all cases: two-hybrid; yeast reporter strain L40 co-transformed with pB27 (LexA DNA binding domain) Rab4b forms as bait and pACT2-VPS52 (GAL4 activation domain) as prey; medium lacking leucine and tryptophan; LacZ reporter read with X-Gal
[1] = biological target: T1, Rab4bN121I (UniProt P61018)
T1 sequence: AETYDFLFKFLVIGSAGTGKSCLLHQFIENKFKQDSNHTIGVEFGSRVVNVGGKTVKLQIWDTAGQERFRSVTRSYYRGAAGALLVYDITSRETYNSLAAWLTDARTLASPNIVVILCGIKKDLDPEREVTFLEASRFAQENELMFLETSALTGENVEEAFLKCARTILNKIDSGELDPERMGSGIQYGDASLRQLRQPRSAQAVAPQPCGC

[2] = biological target: T2, Rab4bS22N (UniProt P61018)
T2 sequence: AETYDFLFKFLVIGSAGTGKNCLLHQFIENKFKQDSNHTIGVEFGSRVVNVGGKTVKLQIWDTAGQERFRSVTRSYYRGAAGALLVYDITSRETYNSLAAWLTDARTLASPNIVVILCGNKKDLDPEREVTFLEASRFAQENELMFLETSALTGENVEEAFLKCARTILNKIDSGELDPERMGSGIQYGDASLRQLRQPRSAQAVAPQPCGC

[3] = biological target: T3, Rab4bQ67L (UniProt P61018)
T3 sequence: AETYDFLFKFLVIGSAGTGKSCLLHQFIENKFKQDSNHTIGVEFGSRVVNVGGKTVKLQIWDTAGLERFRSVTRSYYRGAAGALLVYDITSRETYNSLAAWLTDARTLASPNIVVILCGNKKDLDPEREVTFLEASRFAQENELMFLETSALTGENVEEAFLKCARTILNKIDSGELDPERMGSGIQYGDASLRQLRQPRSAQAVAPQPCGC

binding [1]: no binding
binding [2]: no binding
binding [3]: binds
B1: full length VPS52 protein (aminoacid 1 to 723) (protein, UniProt Q8N1B4 1-723)
chain: MAAAATMAAAARELVLRAGTSDMEEEEGPLAGGPGLQEPLQLGELDITSDEFILDEVDVHIQANLEDELVKEALKTGVDLRHYSKQVELELQQIEQKSIRDYIQESENIASLHNQITACDAVLERMEQMLGAFQSDLSSISSEIRTLQEQSGAMNIRLRNRQAVRGKLGELVDGLVVPSALVTAILEAPVTEPRFLEQLQELDAKAAAVREQEARGTAACADVRGVLDRLRVKAVTKIREFILQKIYSFRKPMTNYQIPQTALLKYRFFYQFLLGNERATAKEIRDEYVETLSKIYLSYYRSYLGRLMKVQYEEVAEKDDLMGVEDTAKKGFFSKPSLRSRNTIFTLGTRGSVISPTELEAPILVPHTAQRGEQRYPFEALFRSQHYALLDNSCREYLFICEFFVVSGPAAHDLFHAVMGRTLSMTLKHLDSYLADCYDAIAVFLCIHIVLRFRNIAAKRDVPALDRYWEQVLALLWPRFELILEMNVQSVRSTDPQRLGGLDTRPHYITRRYAEFSSALVSINQTIPNERTMQLLGQLQVEVENFVLRVAAEFSSRKEQLVFLINNYDMMLGVLMERAADDSKEVESFQQLLNARTQEFIEELLSPPFGGLVAFVKEAEALIERGQAERLRGEEARVTQLIRGFGSSWKSSVESLSQDVMRSFTNFRNGTSIIQGALTQLIQLYHRFHRVLSQPQLRALPARAELINIHHLMVELKKHKPNF
